In publication PMC6399320, “The SIAH2-NRF1 axis spatially regulates tumor microenvironment remodeling for tumor progression” (Nature Communications, 2019):
Positions count from the first letter of the chain named. Names and notes keep the numbering of the source. These are yes or no findings as the source states them, for the method shown. Binding seen in cells or lysates may run through a third protein. Some entries that bind do so weakly or less than the wild type. For part of these data: Tags and fused reporters may be left off the sequences shown. Each block holds one binder with its values, some of them ahead of it.

How the values were obtained:
[1] = biological target: T1, Flag-SIAH2^RM (H98A/C101A), E3 ligase activity dead mutant (UniProt O43255); test: co-IP; exogenously expressed Myc-NRF1 or Myc-NRF1-K230R with Flag-SIAH2^RM; IP lysis buffer 150 mM NaCl, 20 mM Tris pH 7.4, 0.5% NP-40, 4 °C
T1 sequence: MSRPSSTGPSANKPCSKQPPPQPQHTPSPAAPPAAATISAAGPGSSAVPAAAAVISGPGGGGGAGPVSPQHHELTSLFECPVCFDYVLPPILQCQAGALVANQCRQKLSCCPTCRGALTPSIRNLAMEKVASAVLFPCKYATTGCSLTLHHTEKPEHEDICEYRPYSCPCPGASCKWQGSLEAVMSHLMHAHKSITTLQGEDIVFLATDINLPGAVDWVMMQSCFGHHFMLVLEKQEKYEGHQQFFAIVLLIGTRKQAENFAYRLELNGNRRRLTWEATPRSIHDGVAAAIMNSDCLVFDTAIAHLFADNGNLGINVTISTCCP

[2] = biological target: T2, NRF1, endogenous in MDA-MB-231 cells (human (endogenous in MDA-MB-231)) (UniProt Q16656); test: co-IP; endogenous proteins, MDA-MB-231 cells under normoxia or hypoxia for 18 h, then 10 µM MG132 for another 6 h; the anti-NRF1 antibody is the only one against an endogenous protein listed for immunoprecipitation
T2 sequence: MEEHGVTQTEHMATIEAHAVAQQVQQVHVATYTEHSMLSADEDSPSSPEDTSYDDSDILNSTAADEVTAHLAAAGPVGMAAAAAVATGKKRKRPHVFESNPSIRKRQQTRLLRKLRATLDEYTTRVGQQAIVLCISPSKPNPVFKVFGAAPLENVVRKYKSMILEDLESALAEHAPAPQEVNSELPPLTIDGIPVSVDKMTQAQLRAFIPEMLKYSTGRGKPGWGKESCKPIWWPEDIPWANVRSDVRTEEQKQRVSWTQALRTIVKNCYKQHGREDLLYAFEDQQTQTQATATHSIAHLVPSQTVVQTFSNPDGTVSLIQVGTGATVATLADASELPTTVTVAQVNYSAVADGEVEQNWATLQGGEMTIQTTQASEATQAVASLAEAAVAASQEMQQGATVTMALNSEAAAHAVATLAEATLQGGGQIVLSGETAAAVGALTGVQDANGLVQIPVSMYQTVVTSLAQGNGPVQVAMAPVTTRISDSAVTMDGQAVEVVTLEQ

binding [1]: binds
B1: Myc-NRF1, exogenously expressed (protein, UniProt Q16656 1-503)
chain: T2 sequence

binding [1]: binds
B2: Myc-NRF1-K230R, exogenously expressed (protein, UniProt Q16656 1-503)
chain: T2 sequence with K230R

binding [2]: binds
B3: GST-SIAH2, bacterially expressed (enzyme, UniProt O43255 1-324, looked up)
chain: T1 sequence with A98H, A101C
notes: E3 ligase SIAH2, cDNA cloned into pGEX-4T-1; Vector pGEX-4T-1; source: Escherichia coli BL21, expressed and purified
